For 1 substance, binding results are on record in PMC12222028.

By UniProt entry, the sequences of proteins in these tests, tags left out. Residues count along the entry.
UniProt Q9P0T7, residues 21-183: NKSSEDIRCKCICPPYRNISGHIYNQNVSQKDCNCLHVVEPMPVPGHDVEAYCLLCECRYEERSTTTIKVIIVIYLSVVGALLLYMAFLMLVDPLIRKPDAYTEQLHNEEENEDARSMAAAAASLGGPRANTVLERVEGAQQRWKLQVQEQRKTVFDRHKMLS
UniProt P51793: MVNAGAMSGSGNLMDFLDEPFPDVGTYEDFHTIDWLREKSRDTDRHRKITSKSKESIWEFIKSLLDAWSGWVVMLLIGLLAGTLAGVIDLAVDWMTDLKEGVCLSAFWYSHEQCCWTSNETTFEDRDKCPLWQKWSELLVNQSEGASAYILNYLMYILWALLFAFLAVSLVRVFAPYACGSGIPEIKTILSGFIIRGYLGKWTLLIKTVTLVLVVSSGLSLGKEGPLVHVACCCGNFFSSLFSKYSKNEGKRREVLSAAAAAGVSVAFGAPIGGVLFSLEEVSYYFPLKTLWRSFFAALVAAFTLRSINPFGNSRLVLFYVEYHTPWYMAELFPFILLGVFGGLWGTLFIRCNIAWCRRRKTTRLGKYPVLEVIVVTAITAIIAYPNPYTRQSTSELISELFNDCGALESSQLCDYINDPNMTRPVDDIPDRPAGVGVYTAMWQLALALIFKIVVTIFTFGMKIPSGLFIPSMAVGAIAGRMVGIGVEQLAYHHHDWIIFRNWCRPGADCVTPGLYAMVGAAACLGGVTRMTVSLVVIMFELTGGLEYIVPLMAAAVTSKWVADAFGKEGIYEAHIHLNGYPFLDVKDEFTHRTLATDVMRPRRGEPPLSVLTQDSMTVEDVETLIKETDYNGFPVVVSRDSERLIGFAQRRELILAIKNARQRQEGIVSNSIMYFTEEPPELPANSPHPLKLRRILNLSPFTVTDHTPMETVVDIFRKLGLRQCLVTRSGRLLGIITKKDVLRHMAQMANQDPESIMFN

This assay addresses TMEM9–HA (human) (UniProt Q9P0T7). Nature of the assay: affinity purification with mass spectrometry; anti-HA IPs from TMEM9-/- iNeurons (day 21) with or without lentiviral expression of TMEM9-HA; 0.5% DDM extract; TMT-MS.

Results are given in words; binding and its absence hold for the method and conditions named. Binding seen in cells or lysates may run through a third protein. A yes stands for co-enrichment or nearness to the bait. Other partners may have been found.

Take CLCN4 (from UniProt P51793 1-760): the binding entry is on record as “binds”.
